# Data as given in PubChem BioAssay AID1259405 (NCATS, 2018)
# Test: 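Mouse-designed siRNAs used to find CHO productivity engineering targets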 (primary screen)
# Cells: Chinese hamster CHO-K1 ovary cells with stable secreted eGFP expression
# Knock-down reagent: single siRNA against mouse genes, 0.8 pmol siRNA per well (2 µl of 400 nM stock)
# Duration: 3 days
# Measurement: 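Percent of the per-plate non-targeting control median for intracellular GFP per well by laser scanning cytometry and for cell viability by ATP luminescence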
# Direction: GFP, % of control: higher = more GFP per well, higher productivity; viability (ATP), % of control: higher = more viable cells (more ATP)
# Rule for the call: 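Called active when intracellular GFP, relative to negative control, is at or above 120%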
# This is one part, drawn at random, of about 50,000 reagents. Of all reagents, about 4,000 (8%) got an active call. 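Mouse siRNA library applied to hamster cells; one well for each siRNA.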 Reagents against one gene are numbered here. No sequences are given here.
target,reagent,"GFP, % of control","viability (ATP), % of control",outcome
Gpr84,1,102,107,inactive
Gpr84,2,81.5,81.6,inactive
Gpr84,3,52.2,66,inactive
Or1e16,1,79.7,55.4,inactive
Or1e16,2,113,93.6,inactive
Or1e16,3,97.4,59.6,inactive
Gusb,1,73.6,77.9,inactive
Gusb,2,64.8,74.4,inactive
Gusb,3,33.5,64,inactive
Wdr59,1,118,98.9,inactive
Wdr59,2,70.9,83.5,inactive
Wdr59,3,114,106,inactive
Cmbl,1,66.9,81.8,inactive
Cmbl,2,53.4,37.8,inactive
Cmbl,3,79.2,95.6,inactive
Or4n4b,1,74.9,66.2,inactive
Or4n4b,2,38.9,32.3,inactive
Or4n4b,3,75.3,110,inactive
Slc68a1,1,80.2,106,inactive
Slc68a1,2,69.6,75,inactive
Slc68a1,3,91,98.7,inactive
Tmem254,1,101,110,inactive
Tmem254,2,0.141,367,inactive
Tmem254,3,164,68.9,active
Kiss1r,1,124,104,active
Kiss1r,2,56.9,58.1,inactive
Kiss1r,3,86.1,82.4,inactive
Chsy3,1,110,101,inactive
Chsy3,2,88.9,90.8,inactive
Chsy3,3,51.8,52.3,inactive
Oxt,1,57.5,44,inactive
Oxt,2,93.2,79.6,inactive
Oxt,3,40.9,65.6,inactive
Ccr1l1,1,67.8,46.6,inactive
Ccr1l1,2,107,105,inactive
Ccr1l1,3,60.8,69.2,inactive
Pdk4,1,68,45.4,inactive
Card11,1,65.6,124,inactive
Card11,2,136,120,active
Onecut1,1,68.3,108,inactive
Onecut1,2,53.6,77.2,inactive
Onecut1,3,84.6,114,inactive
Eno3,1,255,107,active
Eno3,2,72.1,85.4,inactive
Eno3,3,76,57.7,inactive
Gng5,1,95.5,107,inactive
Gng5,2,66.9,54.2,inactive
Gng5,3,59.8,37.4,inactive
Smc2,1,49.3,73.6,inactive
Smc2,2,108,100,inactive
Bub1b,1,109,64.1,inactive
Samsn1,1,98.1,52.4,inactive
Samsn1,2,41.4,66.3,inactive
Samsn1,3,64.6,83.4,inactive
Inppl1,1,93.7,80.1,inactive
Inppl1,2,90.4,69.8,inactive
Inppl1,3,113,90.4,inactive
Tmco5a,1,111,92.3,inactive
Tmco5a,2,59.2,65.9,inactive
Tmco5a,3,81.4,75.3,inactive
Scn4b,1,73.8,60.6,inactive
Scn4b,2,156,73.3,active
Scn4b,3,85.9,97,inactive
Nos2,1,75,75.5,inactive
Nos2,2,87.7,66.9,inactive
Psmb10,1,54.3,73.1,inactive
Psmb10,2,77.9,58.9,inactive
Psmb10,3,40.7,45.1,inactive
Msl3l2,1,116,70,inactive
Msl3l2,2,78.7,77.2,inactive
Msl3l2,3,46.3,45,inactive
N4bp2l1,1,58.1,38,inactive
N4bp2l1,2,61.9,89.8,inactive
N4bp2l1,3,52.9,52,inactive
Dhx16,1,69.8,72.1,inactive
Dhx16,2,109,123,inactive
Dhx16,3,71,92.8,inactive
Flrt1,1,107,98.8,inactive
Flrt1,2,58.9,48.7,inactive
Flrt1,3,59.7,36,inactive
Lysmd2,1,122,111,active
Lysmd2,2,62.3,51.4,inactive
Lysmd2,3,68.1,80.9,inactive
Or9m2,1,41.7,68.7,inactive
Or9m2,2,47.8,70.7,inactive
Or9m2,3,47.5,63.5,inactive

5 entries from above, showing only “GFP, % of control”:
Gng5 #1: 95.5
Gng5 #2: 66.9
Gng5 #3: 59.8
Smc2 #1: 49.3
Smc2 #2: 108
